For this data set, the target named is T1, Glucocorticoid receptor (Hu-GR), unliganded (human) (UniProt P04150).
T1 sequence (looked up, limits assumed): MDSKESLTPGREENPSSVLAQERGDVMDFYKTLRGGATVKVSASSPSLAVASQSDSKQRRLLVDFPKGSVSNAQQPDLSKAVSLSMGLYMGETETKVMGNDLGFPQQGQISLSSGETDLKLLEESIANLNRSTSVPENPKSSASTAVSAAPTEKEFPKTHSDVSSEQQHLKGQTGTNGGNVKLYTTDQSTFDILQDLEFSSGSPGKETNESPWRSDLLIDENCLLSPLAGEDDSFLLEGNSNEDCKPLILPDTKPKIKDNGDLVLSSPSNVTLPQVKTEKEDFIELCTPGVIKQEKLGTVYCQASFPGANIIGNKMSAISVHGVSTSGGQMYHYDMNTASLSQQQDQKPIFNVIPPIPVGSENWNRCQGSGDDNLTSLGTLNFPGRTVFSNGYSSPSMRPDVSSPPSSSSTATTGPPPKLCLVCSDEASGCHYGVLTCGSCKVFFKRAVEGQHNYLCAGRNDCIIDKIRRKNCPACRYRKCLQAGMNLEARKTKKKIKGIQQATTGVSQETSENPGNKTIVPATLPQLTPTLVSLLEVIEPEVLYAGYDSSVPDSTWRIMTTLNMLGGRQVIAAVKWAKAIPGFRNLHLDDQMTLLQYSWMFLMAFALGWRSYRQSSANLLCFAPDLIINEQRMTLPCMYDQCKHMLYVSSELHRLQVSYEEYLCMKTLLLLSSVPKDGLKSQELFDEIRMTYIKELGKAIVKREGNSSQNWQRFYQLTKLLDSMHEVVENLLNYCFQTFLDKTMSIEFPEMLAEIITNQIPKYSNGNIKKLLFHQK
Nature of the data set: EMSA. Conditions: 25, 50 or 100 mM ethanol, no glucocorticoid; GR 40 ng (0.5 pmol), probe 0.5 ng (0.05 pmol), 1 ug poly(dI-dC), 25 ul; 6% non-denaturing PAGE; pH and temperature not stated; recombinant protein; label: 32P 5'-end. A general note: A gel shift assay detects complexes by their altered migration in electrophoresis.

The exact form of at least one protein or probe is not confirmed. At least one verdict rests on a figure or table, not on a statement of the authors. Where a protein sequence is shown, tags need not be part of it.

As for “CAAACTAGCGCTGTTCTTTACTGAATGCCC (double strand) [Wt-GRE1]”, the binding result is “binds”.
The same measure for “GGTGGAACCCAATGTTCTCCTTTGGTCCTG (double strand) [Wt-GRE2]”: “binds”.

Source of the values: PMC5461336, “Non-canonical Glucocorticoid Receptor Transactivation of gilz by Alcohol Suppresses Cell Inflammatory Response”.
